Values quoted from earlier work as cited in US8883849B2, “Treatment of sleep disturbances” (Wyeth LLC, priority 2001, dated 2014).

Details: cited from earlier work

CN(C)CCOC(c1ccccc1)c1ccccc1 [DPH, 2-(diphenylmethoxy)-N,N-dimethylethylamine]
time to reach effective concentrations in the plasma (on average, after treatment): ≥ 2 h | time until the drug appears in plasma (oral administration of a single dose): ≤ 15 min
